Test results reported in US20140073631A1 (priority 2012, published 2014).
Some entries share one result that the patent states for a list of compounds. At least one compound was matched to its structure with a doubt left.

Tested on: Burkholderia pseudomallei
Format: cell-based

Q: For `CN=C(NC(=N)N1CCN(c2cc3c(cc2F)c(=O)c(C(=O)O)cn3C2CC2)CC1)N1CCN(c2c(F)cc3c(=O)c(C(=O)O)cn4c3c2OCC4C)CC1` (stereo not drawn) [BVS-47A (XX)], which MIC90 is on record?
A: Its MIC90 is “below 2 micrograms/ml”.

Q: For `CC1COc2c(N3CCN(C(=N)NC#N)CC3)c(F)cc3c(=O)c(C(=O)O)cn1c23` (stereo not drawn) [BVS-60C (XVII)], which MIC90 is on record?
A: The MIC90 was “below 2 micrograms/ml”.

Q: Which MIC90 does the source give for `C[C@@H]1COc2c(N3CCN(C(=N)NC(=N)N4CCN(c5c(F)cc6c(=O)c(C(=O)O)cn7c6c5OC[C@@H]7C)CC4)CC3)c(F)cc3c(=O)c(C(=O)O)cn1c23` [BVS-76D (XVII)] here?
A: Its MIC90 is “below 2 micrograms/ml”.
